Record: PubChem BioAssay AID652272 (Drosophila RNAi Screening Center, 2013)

Screen: 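Finding fly genes that regulate Hedgehog signal transduction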 (primary screen)
Cell system: Drosophila clone 8 (Cl8) cells
Reagents: long dsRNA against Drosophila genes
Read-out: 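Plate reader light from a firefly reporter under a ptc promoter fragment that responds to Hedgehog, with Renilla light as transfection reference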
Scale: firefly Hh reporter signal: higher = more ptc reporter light; Renilla reference signal: higher = more Renilla control light
Rule for the call: 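Called a hit if the two-replicate mean z-score lies below -2 or above +3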
Calls: active = hit: reporter lowered or raised; inactive = not a hit
The screen tested about 21,000 reagents; below is an unselected part of those with a known target gene and a result. Of all reagents, 503 (2.4%) are marked active. 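Raw plate light values, not normalised; calls rest on replicate z-scores that were not deposited; hits include reporter decreases as well as increases.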 The numbers tell different reagents against one gene apart. A plus sign joins genes that one reagent is predicted to hit. Not stated in the record: the amount of reagent, the time to read-out.

CG17327: firefly Hh reporter signal, replicate 1 = 1.08e5; firefly Hh reporter signal, replicate 2 = 1.26e5; Renilla reference signal, replicate 1 = 866; Renilla reference signal, replicate 2 = 2363; outcome = inactive
Tti1: firefly Hh reporter signal, replicate 1 = 57171; firefly Hh reporter signal, replicate 2 = 97370; Renilla reference signal, replicate 1 = 1587; Renilla reference signal, replicate 2 = 2680; outcome = inactive
bun #1: firefly Hh reporter signal, replicate 1 = 4.75e5; firefly Hh reporter signal, replicate 2 = 2.02e5; Renilla reference signal, replicate 1 = 24523; Renilla reference signal, replicate 2 = 10137; outcome = inactive
bun #2: firefly Hh reporter signal, replicate 1 = 4.72e5; firefly Hh reporter signal, replicate 2 = 1.27e5; Renilla reference signal, replicate 1 = 16315; Renilla reference signal, replicate 2 = 6288; outcome = inactive
bun #3: firefly Hh reporter signal, replicate 1 = 48836; firefly Hh reporter signal, replicate 2 = 29536; Renilla reference signal, replicate 1 = 2528; Renilla reference signal, replicate 2 = 1373; outcome = inactive
CG12491 + CG34105 #1: firefly Hh reporter signal, replicate 1 = 1.52e5; firefly Hh reporter signal, replicate 2 = 2.35e5; Renilla reference signal, replicate 1 = 3763; Renilla reference signal, replicate 2 = 10567; outcome = inactive
CG12491 + CG34105 #2: firefly Hh reporter signal, replicate 1 = 76087; firefly Hh reporter signal, replicate 2 = 65928; Renilla reference signal, replicate 1 = 2310; Renilla reference signal, replicate 2 = 6066; outcome = inactive
TrissinR #1: firefly Hh reporter signal, replicate 1 = 1.39e5; firefly Hh reporter signal, replicate 2 = 75440; Renilla reference signal, replicate 1 = 3088; Renilla reference signal, replicate 2 = 5970; outcome = inactive
TrissinR #2: firefly Hh reporter signal, replicate 1 = 74176; firefly Hh reporter signal, replicate 2 = 38880; Renilla reference signal, replicate 1 = 2484; Renilla reference signal, replicate 2 = 5642; outcome = inactive
TrissinR #3: firefly Hh reporter signal, replicate 1 = 82224; firefly Hh reporter signal, replicate 2 = 53531; Renilla reference signal, replicate 1 = 2626; Renilla reference signal, replicate 2 = 4641; outcome = inactive
Galphaq: firefly Hh reporter signal, replicate 1 = 96018; firefly Hh reporter signal, replicate 2 = 45872; Renilla reference signal, replicate 1 = 3968; Renilla reference signal, replicate 2 = 2050; outcome = inactive
CG13872: firefly Hh reporter signal, replicate 1 = 1.08e5; firefly Hh reporter signal, replicate 2 = 56181; Renilla reference signal, replicate 1 = 3061; Renilla reference signal, replicate 2 = 4379; outcome = inactive
Fpgs2: firefly Hh reporter signal, replicate 1 = 1.44e5; firefly Hh reporter signal, replicate 2 = 48100; Renilla reference signal, replicate 1 = 3411; Renilla reference signal, replicate 2 = 4641; outcome = inactive
CG8135 + BBIP1 #1: firefly Hh reporter signal, replicate 1 = 1.19e5; Renilla reference signal, replicate 1 = 2816; outcome = inactive
CG8135 + BBIP1 #2: firefly Hh reporter signal, replicate 1 = 61568; firefly Hh reporter signal, replicate 2 = 91492; Renilla reference signal, replicate 1 = 1882; Renilla reference signal, replicate 2 = 2470; outcome = inactive
